Laboratory results: PubChem BioAssay AID1259254 (NCATS, 2017)
Assay: 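Finding genes that stop cells copying their DNA twice in one cycle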 (primary screen). Cell system: human HCT116 colorectal cancer cells. Reagents: single siRNA against human genes. Timing: 3 days. Measured: 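Nuclei stained with Hoechst and imaged; cell-cycle phase assigned by DNA content; G2 share scaled per plate, non-targeting siRNA 0%, GMNN siRNA 100%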. Reading the numbers: G2 robust z-score: higher = more G2 cells, more excess DNA replication. Active means: 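An siRNA counts as active if its G2 robust z-score lies at least 5 MADs above the screen median; here such calls match roughly 38% of GMNN control or more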.
Here is a random part of about 59,000 reagents. About 1,550 of them (2.6%) count as active. 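G2 share is only a proxy for re-replication; each gene was hit by three separate siRNAs, and active genes were retested.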 Reagents against one gene are numbered here. Not all columns of the deposit are shown. Reagent sequences are not shown. The record does not give: the amount of reagent.

no.	gene knocked down	reagent	G2 robust z-score	call
1	AKAP19 (GeneID 84281)	1	-0.95	inactive
2	AKAP19 (GeneID 84281)	2	-0.634	inactive
3	AKAP19 (GeneID 84281)	3	0.293	inactive
4	C3orf52 (GeneID 79669)	1	-1.03	inactive
5	C3orf52 (GeneID 79669)	2	0.52	inactive
6	C3orf52 (GeneID 79669)	3	0.477	inactive
7	KIAA0408 (GeneID 9729)	1	-1.2	inactive
8	KIAA0408 (GeneID 9729)	2	-0.225	inactive
9	KIAA0408 (GeneID 9729)	3	1.98	inactive
10	UGT3A2 (GeneID 167127)	1	-0.582	inactive
11	UGT3A2 (GeneID 167127)	2	0.913	inactive
12	UGT3A2 (GeneID 167127)	3	0.139	inactive
13	LIMS1 (GeneID 3987)	1	-0.814	inactive
14	LIMS1 (GeneID 3987)	2	3.04	inactive
15	LIMS1 (GeneID 3987)	3	-0.339	inactive
16	SF3B2 (GeneID 10992)	1	0.994	inactive
17	SF3B2 (GeneID 10992)	2	1.34	inactive
18	SF3B2 (GeneID 10992)	3	0.294	inactive
19	CETN3 (GeneID 1070)	1	0.0887	inactive
20	CETN3 (GeneID 1070)	2	-0.583	inactive
21	CETN3 (GeneID 1070)	3	0.226	inactive
22	CFAP263 (GeneID 29070)	1	-0.926	inactive
23	CFAP263 (GeneID 29070)	2	-0.321	inactive
24	CFAP263 (GeneID 29070)	3	-1.06	inactive

Entries listed so far whose gene name begins with S or s (3):
gene knocked down	reagent	G2 robust z-score	call
SF3B2 (GeneID 10992)	1	0.994	inactive
SF3B2 (GeneID 10992)	2	1.34	inactive
SF3B2 (GeneID 10992)	3	0.294	inactive

Continued:
no.	gene knocked down	reagent	G2 robust z-score	call
25	ENTHD1 (GeneID 150350)	1	0.0802	inactive
26	ENTHD1 (GeneID 150350)	2	1.53	inactive
27	ENTHD1 (GeneID 150350)	3	-1.07	inactive
28	TULP4 (GeneID 56995)	1	-0.891	inactive
29	TULP4 (GeneID 56995)	2	0.0461	inactive
30	TULP4 (GeneID 56995)	3	-0.108	inactive
31	FBXO43 (GeneID 286151)	1	1.2	inactive
32	FBXO43 (GeneID 286151)	2	0.082	inactive
33	FBXO43 (GeneID 286151)	3	-0.899	inactive
34	IL10RB (GeneID 3588)	1	-0.0441	inactive
35	IL10RB (GeneID 3588)	2	-0.912	inactive
36	IL10RB (GeneID 3588)	3	-0.643	inactive
37	UBE2E1 (GeneID 7324)	1	-1.11	inactive
38	UBE2E1 (GeneID 7324)	2	0.389	inactive
39	UBE2E1 (GeneID 7324)	3	0.564	inactive
40	RNF225 (GeneID 646862)	1	0.133	inactive
41	RNF225 (GeneID 646862)	2	-0.452	inactive
42	RNF225 (GeneID 646862)	3	-0.463	inactive
43	RPL15P3 (GeneID 653232)	1	4.02	inactive
44	RPL15P3 (GeneID 653232)	2	0.888	inactive
45	RPL15P3 (GeneID 653232)	3	2.32	inactive
46	CHRAC1 (GeneID 54108)	1	0.15	inactive
47	CHRAC1 (GeneID 54108)	2	3.93	inactive
48	CHRAC1 (GeneID 54108)	3	-0.575	inactive
49	SBF1 (GeneID 6305)	1	0.198	inactive
50	SBF1 (GeneID 6305)	2	-1.08	inactive
51	SBF1 (GeneID 6305)	3	-0.0231	inactive
52	U2AF2 (GeneID 11338)	1	-0.89	inactive
53	U2AF2 (GeneID 11338)	2	-0.297	inactive
54	U2AF2 (GeneID 11338)	3	0.751	inactive
55	CES1 (GeneID 1066)	1	0.467	inactive
56	CES1 (GeneID 1066)	2	-1.2	inactive
57	CES1 (GeneID 1066)	3	0.139	inactive
58	MYOZ1 (GeneID 58529)	1	1.14	inactive
59	MYOZ1 (GeneID 58529)	2	0.00898	inactive
60	MYOZ1 (GeneID 58529)	3	-0.38	inactive
61	FMNL1 (GeneID 752)	1	2.68	inactive
62	FMNL1 (GeneID 752)	2	1.78	inactive
63	FMNL1 (GeneID 752)	3	-0.269	inactive
64	ROR2 (GeneID 4920)	1	-1.18	inactive
65	ROR2 (GeneID 4920)	2	-1.36	inactive
66	ROR2 (GeneID 4920)	3	-0.628	inactive
67	ECI2 (GeneID 10455)	1	1.58	inactive
68	ECI2 (GeneID 10455)	2	-0.668	inactive
69	ECI2 (GeneID 10455)	3	3.49	inactive
